Source: the supplement of paper PMC10849652
This is one part of the list. Residues, ends and D or L forms follow the SMILES beside them. *: point of attachment. Cbz = O=C(OCc1ccccc1)*

By UniProt entry, the sequences of proteins in these tests, tags left out. Where a name states a change or a piece, a line headed by the entry shows the natural chain unless it says otherwise.
UniProt Q9UHQ7: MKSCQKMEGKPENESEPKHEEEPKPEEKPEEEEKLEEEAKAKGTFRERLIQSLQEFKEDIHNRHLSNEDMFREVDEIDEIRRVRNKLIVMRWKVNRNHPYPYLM
UniProt Q9NQ88: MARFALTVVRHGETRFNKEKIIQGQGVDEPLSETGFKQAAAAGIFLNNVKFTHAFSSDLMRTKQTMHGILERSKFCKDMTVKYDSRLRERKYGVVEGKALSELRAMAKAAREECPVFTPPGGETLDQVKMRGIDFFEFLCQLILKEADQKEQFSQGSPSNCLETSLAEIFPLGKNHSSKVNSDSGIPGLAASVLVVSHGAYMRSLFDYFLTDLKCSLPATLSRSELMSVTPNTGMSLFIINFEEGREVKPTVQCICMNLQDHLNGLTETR
UniProt Q13428: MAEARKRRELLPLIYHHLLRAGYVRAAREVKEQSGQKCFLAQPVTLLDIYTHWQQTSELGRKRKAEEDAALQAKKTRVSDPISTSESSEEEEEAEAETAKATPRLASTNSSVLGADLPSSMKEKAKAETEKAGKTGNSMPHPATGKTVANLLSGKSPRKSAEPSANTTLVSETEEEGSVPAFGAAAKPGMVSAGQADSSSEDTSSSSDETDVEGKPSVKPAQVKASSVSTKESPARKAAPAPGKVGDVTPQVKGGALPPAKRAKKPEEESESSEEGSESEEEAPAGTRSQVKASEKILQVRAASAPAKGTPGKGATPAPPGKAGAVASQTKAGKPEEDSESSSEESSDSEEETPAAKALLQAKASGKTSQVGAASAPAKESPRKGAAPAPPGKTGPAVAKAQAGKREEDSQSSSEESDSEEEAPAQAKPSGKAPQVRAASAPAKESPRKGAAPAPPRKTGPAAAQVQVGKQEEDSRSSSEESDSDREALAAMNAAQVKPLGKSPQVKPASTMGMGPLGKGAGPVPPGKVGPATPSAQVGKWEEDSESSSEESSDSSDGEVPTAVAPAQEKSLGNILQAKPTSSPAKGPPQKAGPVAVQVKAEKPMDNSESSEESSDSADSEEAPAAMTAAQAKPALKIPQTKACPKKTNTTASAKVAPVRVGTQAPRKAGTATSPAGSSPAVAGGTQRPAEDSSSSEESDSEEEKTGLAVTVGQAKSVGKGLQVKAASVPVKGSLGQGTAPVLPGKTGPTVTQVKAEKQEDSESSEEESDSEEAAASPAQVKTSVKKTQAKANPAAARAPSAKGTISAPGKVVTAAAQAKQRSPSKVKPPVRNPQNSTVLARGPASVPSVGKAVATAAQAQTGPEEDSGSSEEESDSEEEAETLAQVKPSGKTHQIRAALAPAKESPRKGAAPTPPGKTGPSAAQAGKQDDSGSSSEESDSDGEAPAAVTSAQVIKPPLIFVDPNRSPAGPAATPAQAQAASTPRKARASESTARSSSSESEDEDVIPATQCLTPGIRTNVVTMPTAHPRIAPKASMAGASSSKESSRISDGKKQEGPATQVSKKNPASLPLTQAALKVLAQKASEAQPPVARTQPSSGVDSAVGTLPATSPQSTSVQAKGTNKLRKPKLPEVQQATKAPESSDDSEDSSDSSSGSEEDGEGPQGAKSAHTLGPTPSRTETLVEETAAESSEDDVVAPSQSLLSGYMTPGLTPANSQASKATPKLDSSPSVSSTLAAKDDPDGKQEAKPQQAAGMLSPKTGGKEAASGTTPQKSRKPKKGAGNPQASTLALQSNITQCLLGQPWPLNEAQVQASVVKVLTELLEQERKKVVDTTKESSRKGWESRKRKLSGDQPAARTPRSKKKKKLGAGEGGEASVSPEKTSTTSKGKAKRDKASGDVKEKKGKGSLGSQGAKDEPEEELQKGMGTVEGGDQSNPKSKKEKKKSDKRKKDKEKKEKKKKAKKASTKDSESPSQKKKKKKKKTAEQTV
UniProt Q8IYN2: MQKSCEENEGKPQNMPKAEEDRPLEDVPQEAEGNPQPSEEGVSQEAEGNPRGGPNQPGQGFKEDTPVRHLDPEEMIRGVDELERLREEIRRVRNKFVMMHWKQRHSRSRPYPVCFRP
UniProt Q15170: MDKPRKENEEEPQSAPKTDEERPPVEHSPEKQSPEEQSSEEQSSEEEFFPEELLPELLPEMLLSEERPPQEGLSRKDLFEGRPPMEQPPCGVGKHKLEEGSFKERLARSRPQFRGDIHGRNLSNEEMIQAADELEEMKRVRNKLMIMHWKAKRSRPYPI
UniProt Q5TEJ8: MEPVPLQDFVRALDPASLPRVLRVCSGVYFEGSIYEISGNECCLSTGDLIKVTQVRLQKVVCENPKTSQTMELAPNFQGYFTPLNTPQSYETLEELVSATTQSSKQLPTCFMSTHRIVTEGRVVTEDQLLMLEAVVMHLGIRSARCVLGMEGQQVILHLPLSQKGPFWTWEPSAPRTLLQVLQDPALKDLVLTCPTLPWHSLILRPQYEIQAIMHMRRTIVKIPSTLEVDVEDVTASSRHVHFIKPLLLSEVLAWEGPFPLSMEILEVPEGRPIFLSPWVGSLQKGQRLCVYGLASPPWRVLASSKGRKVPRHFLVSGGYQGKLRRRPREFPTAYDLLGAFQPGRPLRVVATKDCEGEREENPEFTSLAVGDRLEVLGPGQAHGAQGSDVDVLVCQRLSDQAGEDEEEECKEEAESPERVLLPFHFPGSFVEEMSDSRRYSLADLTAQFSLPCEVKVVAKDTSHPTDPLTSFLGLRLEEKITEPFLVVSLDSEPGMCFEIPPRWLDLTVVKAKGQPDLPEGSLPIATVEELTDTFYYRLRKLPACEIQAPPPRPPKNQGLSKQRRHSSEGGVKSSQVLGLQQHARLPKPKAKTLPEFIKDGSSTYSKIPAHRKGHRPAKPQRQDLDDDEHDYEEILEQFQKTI
UniProt Q96CG3: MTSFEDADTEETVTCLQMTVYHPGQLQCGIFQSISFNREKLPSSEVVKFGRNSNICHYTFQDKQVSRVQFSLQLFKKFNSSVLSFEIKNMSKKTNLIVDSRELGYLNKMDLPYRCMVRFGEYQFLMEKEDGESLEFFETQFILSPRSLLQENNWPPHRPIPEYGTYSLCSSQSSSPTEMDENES
UniProt Q9UPU7: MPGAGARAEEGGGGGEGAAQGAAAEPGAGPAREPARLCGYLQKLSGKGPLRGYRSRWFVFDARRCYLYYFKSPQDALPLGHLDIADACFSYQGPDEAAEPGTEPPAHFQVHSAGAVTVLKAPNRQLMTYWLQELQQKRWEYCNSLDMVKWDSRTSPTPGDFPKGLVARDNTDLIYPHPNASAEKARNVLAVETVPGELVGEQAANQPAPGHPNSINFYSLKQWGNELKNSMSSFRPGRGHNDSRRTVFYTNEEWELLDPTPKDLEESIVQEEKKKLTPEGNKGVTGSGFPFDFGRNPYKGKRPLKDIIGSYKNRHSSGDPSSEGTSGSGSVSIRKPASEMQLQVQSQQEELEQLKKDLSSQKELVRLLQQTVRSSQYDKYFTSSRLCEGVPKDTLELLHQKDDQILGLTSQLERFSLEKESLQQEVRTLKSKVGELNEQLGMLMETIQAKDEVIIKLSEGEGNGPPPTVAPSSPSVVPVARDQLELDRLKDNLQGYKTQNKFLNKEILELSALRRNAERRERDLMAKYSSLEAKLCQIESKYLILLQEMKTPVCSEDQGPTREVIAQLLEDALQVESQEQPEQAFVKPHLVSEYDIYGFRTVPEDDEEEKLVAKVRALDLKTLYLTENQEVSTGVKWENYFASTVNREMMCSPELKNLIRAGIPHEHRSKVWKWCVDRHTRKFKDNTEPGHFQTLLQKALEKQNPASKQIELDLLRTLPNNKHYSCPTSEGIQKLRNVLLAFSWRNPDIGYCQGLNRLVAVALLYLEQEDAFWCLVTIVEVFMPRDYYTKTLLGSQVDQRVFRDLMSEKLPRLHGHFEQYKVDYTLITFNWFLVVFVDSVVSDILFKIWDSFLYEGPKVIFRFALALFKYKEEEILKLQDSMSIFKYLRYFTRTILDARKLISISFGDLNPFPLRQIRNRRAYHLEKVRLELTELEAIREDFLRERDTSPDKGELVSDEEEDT
UniProt Q9NUW8, whole entry, looked up: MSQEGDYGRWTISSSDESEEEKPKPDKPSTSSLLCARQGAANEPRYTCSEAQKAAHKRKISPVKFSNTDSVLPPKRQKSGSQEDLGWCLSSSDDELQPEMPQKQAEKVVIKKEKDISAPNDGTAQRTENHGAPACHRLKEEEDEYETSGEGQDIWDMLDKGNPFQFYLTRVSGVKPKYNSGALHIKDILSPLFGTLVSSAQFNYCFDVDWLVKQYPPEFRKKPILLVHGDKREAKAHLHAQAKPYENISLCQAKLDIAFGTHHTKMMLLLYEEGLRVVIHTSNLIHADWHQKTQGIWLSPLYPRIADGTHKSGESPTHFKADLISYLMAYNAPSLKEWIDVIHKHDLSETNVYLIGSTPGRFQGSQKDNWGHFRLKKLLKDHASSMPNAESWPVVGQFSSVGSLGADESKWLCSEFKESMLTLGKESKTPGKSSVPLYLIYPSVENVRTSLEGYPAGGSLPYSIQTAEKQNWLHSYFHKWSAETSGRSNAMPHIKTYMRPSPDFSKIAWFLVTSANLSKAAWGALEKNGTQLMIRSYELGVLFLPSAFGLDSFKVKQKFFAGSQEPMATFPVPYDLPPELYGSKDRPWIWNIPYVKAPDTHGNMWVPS

Tests used:
Experiment in all cases: log2 fold change, soluble protein after heating vs DMSO (PISA); higher = thermal stabilisation; K562 cells, 10 uM, 30 min; active = over 0.2 and 3.5 SD of the protein, either way, in both replicates (recomputed)
erlotinib = compound: C#Cc1cccc(Nc2ncnc3cc(OCCOC)c(OCCOC)cc23)c1 [erlotinib]
Summary of the method: (§1)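 K562 cells at 2×10^6 cells/mL were given 10 μM compound for 30 min. Aliquots then went through 3 min of heating across 48°C-58°C, were pooled, and were extracted in PBS with 0.5% NP-40 at 4°C, and the supernatant after 21,000xg for 90 min was quantified by TMTpro 16plex LC-MS/MS with channel sums equalised. Thermal stability relative to control samples, from duplicates, is given as log2 fold change.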

[1] = compound: C1=CC(=CC=C1C2=NC3=C(N2)C=C(C=C3)C(=O)N)OC4=CC=C(C=C4)Cl
Summary of the method: as §1

[2] = compound: C1=CC2=NC=CN=C2C=C1/C=C/3\C(=O)NC(=O)S3
Summary of the method: as §1

ibrutinib = compound: C=CC(=O)N1CCC[C@@H](n2nc(-c3ccc(Oc4ccccc4)cc3)c3c(N)ncnc32)C1 [ibrutinib]
Summary of the method: as §1

[3] = compound: CC(C)C1=C2N=C(C=C(N2N=C1)NCC3=CC=CC=C3)NCCCCCCN
Summary of the method: as §1

[4] = compound: C1=CC(=C(C=C1Cl)C2=NC3=NC=CN=C3C(=N2)NC4=CC=NC=C4)F
Summary of the method: as §1

[5] = compound: CC(C)(O)CC(=O)NCCn1ccc2ncnc(Nc3ccc(Oc4cccc(C(F)(F)F)c4)c(Cl)c3)c21
Summary of the method: as §1

[6] = compound: C/C(=N\NC(=O)C1=CC(=CC=C1)S(=O)(=O)N2CCOCC2)/C3=C(C=CC(=C3)Cl)O
Summary of the method: as §1

[7] = compound: C1=CC2=C(C=CC(=C2)/C=C\3/C(=O)NC(=NCC4=CC=CS4)S3)N=C1
Summary of the method: as §1

[8] = compound: C1=CC=C2C(=C1)C3=NNC4=CC=CC(=C43)C2=O
Summary of the method: as §1

[9] = compound: C1CCN(C1)C(=O)NC2=CC=CC(=C2)NC3=NC=C(C(=N3)NCCC4=CN=CN4)Br
Summary of the method: as §1

[10] = compound: C1CN(CCC1(CC2=CC=C(C=C2)Cl)N)C3=NC=NC4=C3C=CN4
Summary of the method: as §1

[11] = compound: CC(=O)c1cnc2ccc(-c3cc(Cl)c(O)c(Cl)c3)nc2c1N[C@H]1CC[C@H](CN(C)C)CC1
Summary of the method: as §1

[12] = compound: CC1=C(C2=C(C=C1)C(=O)C3=CC=CC=C3N2CCCN)C
Summary of the method: as §1

[13] = compound: C1=CC=C(C=C1)C2=NC(=C(N2)C3=CC=NC=C3)C4=CC(=C(C=C4)Cl)O
Summary of the method: as §1

ralimetinib = compound: CC(C)(C)Cn1c(N)nc2ccc(-c3[nH]c(C(C)(C)C)nc3-c3ccc(F)cc3)nc21 [ralimetinib]
Summary of the method: as §1

[14] = compound: CC(C)C[C@@H](C=O)NC(=O)[C@H](CC(C)C)NC(=O)[C@H](CC(C)C)NC(=O)OCc1ccccc1
Summary of the method: as §1

IRAK-1-4 Inhibitor I = compound: C1COCCN1CCN2C3=CC=CC=C3N=C2NC(=O)C4=CC(=CC=C4)[N+](=O)[O-] [IRAK-1-4 Inhibitor I]
Summary of the method: as §1

pinometostat = compound: CC(C)N(C[C@H]1O[C@@H](n2cnc3c(N)ncnc32)[C@H](O)[C@@H]1O)[C@H]1C[C@@H](CCc2nc3cc(C(C)(C)C)ccc3[nH]2)C1 [pinometostat]
Summary of the method: as §1

[15] = compound: CC1=C(C(CC(=O)N1)C2=CC=C(C=C2)C(F)(F)F)C(=O)NC3=C(C=C4C(=C3)C=NN4)F
Summary of the method: as §1

Measured: log2 fold change

TBC1D25 (UniProt Q3MII6)
inactive: erlotinib 0.236 | [1] 0.098 | [2] -0.126 | ibrutinib -0.25 | [3] -0.124

TCEAL9 (UniProt Q9UHQ7)
inactive: [4] -0.173 | [5] -0.259

TIGAR (UniProt Q9NQ88)
inactive: [2] -0.231 | ibrutinib -0.006

TLCD3A (UniProt Q8TBR7)
inactive: [6] -0.028 | [7] 0.064 | [8] -0.019 | [9] 0.034 | [10] 0.02 | [11] 0.095 | [12] -0.002

TCOF1 isoform 3 (UniProt Q13428)
inactive: erlotinib 0.062 | [4] -0.193 | [1] -0.172 | [13] -0.056 | [9] 0.101 | [10] 0.012 | ralimetinib 0.522 | [5] -0.095 | [3] -0.01 | [14] 0.176 | [12] -0.642

TFDP2 (UniProt Q14188)
inactive: [4] -0.024 | [2] 0.151 | [9] 0.21 | [10] 0.071 | ibrutinib -0.271 | [5] 0.132 | [12] -0.359

TDRD3 isoform 3 (UniProt Q9H7E2)
inactive: [4] -0.208 | [2] -0.162 | ibrutinib 0.075 | [5] 0.181

TBC1D2 (UniProt Q9BYX2)
inactive: [6] 0 | [4] -0.042 | [7] 0.063 | [8] -0.006 | [11] -0.208 | [5] 0.007

Quoted at random: two records from the list.
TBC1D2 (UniProt Q9BYX2)
inactive: [6] 0 | [4] -0.042 | [7] 0.063 | [8] -0.006 | [11] -0.208 | [5] 0.007

TCOF1 isoform 3 (UniProt Q13428)
inactive: erlotinib 0.062 | [4] -0.193 | [1] -0.172 | [13] -0.056 | [9] 0.101 | [10] 0.012 | ralimetinib 0.522 | [5] -0.095 | [3] -0.01 | [14] 0.176 | [12] -0.642

Further entries:

TCOF1 isoform 6 (UniProt Q13428)
inactive: erlotinib -0.234 | [1] 0.074 | [2] -0.045 | [13] 0.186 | [9] 0.002 | [10] 0.02 | IRAK-1-4 Inhibitor I 0.041 | ibrutinib 0.12 | ralimetinib 0.225 | [3] 0.092 | [14] -0.127 | pinometostat -0.121 | [12] -0.155

TCEAL8 (UniProt Q8IYN2)
inactive: erlotinib 0.036 | [1] -0.004 | IRAK-1-4 Inhibitor I -0.136 | [3] 0 | pinometostat 0.003 | [15] -0.014

TESMIN (UniProt Q9Y4I5)
inactive: [15] 0.008

TENT5C (UniProt Q5VWP2)
inactive: erlotinib -0.117 | [1] 0.087 | [2] 0.023 | [13] -0.104 | [9] -0.025 | [10] -0.017 | IRAK-1-4 Inhibitor I 0.136 | ibrutinib 0.008 | ralimetinib -0.119 | [3] 0.18 | [14] 0.03 | pinometostat -0.028 | [12] -0.014

TCF3 isoform 2 (UniProt P15923)
inactive: [6] 0.022 | [7] 0.117 | [13] -0.001 | [8] -0.081 | [9] -0.102 | [10] -0.047 | IRAK-1-4 Inhibitor I 0.02 | [11] -0.037 | ralimetinib -0.08 | [14] 0.174 | pinometostat -0.11 | [12] 0.013

TENM4 (UniProt Q6N022)
inactive: [4] -0.031 | IRAK-1-4 Inhibitor I -0.075 | [5] 0.056 | pinometostat 0

TCF4 isoform 3 (UniProt P15884)
inactive: [9] -0.147 | [10] 0.099 | [12] -0.056

TBX1 isoform 3 (UniProt O43435)
inactive: IRAK-1-4 Inhibitor I -0.111 | pinometostat 0.122 | [15] -0.067

TBP (UniProt P20226)
active: [12] 0.528
inactive: [6] -0.016 | [4] 0.027 | [7] 0.073 | [2] 0.041 | [13] 0.012 | [8] -0.058 | [9] 0.018 | [10] 0.157 | IRAK-1-4 Inhibitor I 0.018 | ibrutinib -0.029 | [11] 0.091 | ralimetinib -0.016 | [5] 0.036 | [14] -0.002 | pinometostat -0.019

THAP12 (UniProt O43422)
inactive: erlotinib -0.19 | [1] 0.125 | [13] -0.014 | IRAK-1-4 Inhibitor I -0.186 | ralimetinib 0.032 | [3] 0.195 | [14] 0.147 | pinometostat 0.105 | [15] -0.052

TCEAL1 isoform 2 (UniProt Q15170)
inactive: [13] -0.162 | [9] -0.036 | [10] 0.121 | IRAK-1-4 Inhibitor I 0.209 | ralimetinib 0.049 | [14] 0.005 | pinometostat -0.268 | [12] 0.018

THEMIS2 (UniProt Q5TEJ8)
inactive: [4] 0.082 | [13] 0.011 | [9] -0.109 | [10] -0.075 | IRAK-1-4 Inhibitor I 0.01 | ralimetinib 0.122 | [5] 0.014 | [14] 0.123 | pinometostat 0.077 | [15] -0.138 | [12] 0.101

TCAF2 (UniProt A6NFQ2)
inactive: [4] -0.254 | [13] -0.201 | IRAK-1-4 Inhibitor I -0.002 | ralimetinib 0.286 | [5] 0.052 | [14] -0.022 | pinometostat 0.297 | [15] 0.021

TK1 (UniProt K7ERV3)
inactive: [6] 0.063 | [4] -0.011 | [7] 0.028 | [2] -0.006 | [13] -0.069 | [8] 0.037 | [9] -0.015 | [10] 0.061 | ibrutinib -0.033 | [11] -0.071 | ralimetinib -0.025 | [5] -0.122 | [14] 0.078 | [12] -0.037

TCEAL4 isoform 2 (UniProt Q96EI5)
inactive: erlotinib -0.011 | [4] -0.031 | [1] 0.012 | [13] -0.352 | [9] -0.076 | [10] -0.084 | IRAK-1-4 Inhibitor I 0.117 | ralimetinib -0.168 | [5] -0.052 | [3] 0.077 | [14] 0.143 | pinometostat -0.064 | [12] -0.097

TC2N (UniProt Q8N9U0)
inactive: [6] 0.038 | [7] 0.362 | [13] -0.021 | [8] 0.054 | [9] 0.042 | [10] -0.004 | [11] -0.486 | ralimetinib -0.036 | [14] 0.028 | [12] 0.014

THAP9 (UniProt Q9H5L6)
active: [6] -0.733
inactive: [7] 0.163 | [2] -0.211 | [13] 0.123 | [8] -0.057 | IRAK-1-4 Inhibitor I 0.07 | ibrutinib 0.002 | [11] -0.105 | ralimetinib 0.178 | [14] -0.025 | pinometostat -0.035

TLE3 (UniProt Q04726)
inactive: [2] -0.084 | ibrutinib -0.029

TEPSIN (UniProt Q96N21)
inactive: IRAK-1-4 Inhibitor I -0.049 | pinometostat 0.044

2 consecutive records out of the list so far, for reference:
TLE3 (UniProt Q04726)
inactive: [2] -0.084 | ibrutinib -0.029

TEPSIN (UniProt Q96N21)
inactive: IRAK-1-4 Inhibitor I -0.049 | pinometostat 0.044

(list continues)

TDRD15 (UniProt B5MCY1)
inactive: erlotinib 0.699 | [1] -0.113 | [13] 0.02 | [9] 0.331 | [10] 0.013 | ralimetinib 0.192 | [3] -0.029 | [14] 0.093 | [12] 0.141

TCF20 (UniProt Q9UGU0)
inactive: [4] 0.157 | [2] 0.086 | [13] 0.043 | ibrutinib -0.043 | ralimetinib 0.316 | [5] 0.245 | [14] -0.221

TET2 (UniProt Q6N021)
inactive: [9] -0.149 | [10] 0.37 | IRAK-1-4 Inhibitor I 0.092 | pinometostat 0.058 | [15] 0.1 | [12] 0.132

TFAP4 (UniProt Q01664)
inactive: [2] -0.103 | [13] -0.026 | [9] 0.053 | [10] 0.008 | IRAK-1-4 Inhibitor I 0.075 | ibrutinib 0.026 | ralimetinib 0.037 | [14] 0.102 | pinometostat 0.008 | [15] 0.028 | [12] -0.064

TEX10 (UniProt Q9NXF1)
inactive: erlotinib -0.037 | [1] -0.039 | [2] -0.024 | ibrutinib -0.072 | [3] 0.556

TCTN3 (UniProt Q6NUS6)
inactive: [4] -0.011 | [2] 0.136 | IRAK-1-4 Inhibitor I 0.003 | ibrutinib 0.032 | [5] -0.007 | pinometostat 0.081 | [15] 0.164

TBC1D9 (UniProt Q6ZT07)
inactive: erlotinib 0.046 | [1] -0.022 | [2] -0.033 | ibrutinib -0.084 | [3] -0.087

TEDC2 (UniProt Q7L2K0)
inactive: [6] -0.093 | [7] -0.104 | [8] 0 | [9] -0.027 | [10] -0.058 | [11] 0.031 | [12] 0.083

TIFA (UniProt Q96CG3)
inactive: erlotinib -0.065 | [4] 0.013 | [1] -0.006 | IRAK-1-4 Inhibitor I 0.119 | [5] 0.026 | [3] -0.069 | pinometostat -0.059

TBC1D7 (UniProt Q9P0N9)
inactive: erlotinib -0.181 | [4] 0.046 | [1] 0.236 | [2] -0.256 | ibrutinib -0.066 | [5] -0.193 | [3] -0.309

TBC1D2B (UniProt Q9UPU7)
inactive: [2] -0.05 | IRAK-1-4 Inhibitor I 0.042 | ibrutinib -0.03 | pinometostat 0.061 | [15] -0.214

TDP1 (UniProt Q9NUW8)
inactive: erlotinib 0.141 | [3] 0.156
